Values quoted from earlier work in US6420352B1, “Hair loss prevention” (priority 2000, dated 2002).
At least one compound was matched to its structure with a doubt left.

Tested on: hair loss
Details: cited from earlier work

Nc1cc(N2CCCCC2)nc(N)[n+]1[O-] [minoxidil, 6-(1-piperidinyl)-2,4-pyrimidinediamaine 3-oxide]
part of the new hair growth that falls out (after about thirty months of use): about half
kind of hair produced (topical minoxidil without penetration enhancer, known in the art): “lanugo,” or baby-type, hair which is relatively thin
share of adult male users in whom effective (topical, known shortcoming): about eight
